Results as given in paper PMC8611336.
These are yes or no findings as the source states them, for the method shown. Binding seen in cells or lysates may run through a third protein. Some binding calls cover weakened binding; strength is not graded here. Tags and fused reporters may be left off the sequences shown.

T1: Brr6-yeGFP (budding yeast) (UniProt P53062)
T1 sequence: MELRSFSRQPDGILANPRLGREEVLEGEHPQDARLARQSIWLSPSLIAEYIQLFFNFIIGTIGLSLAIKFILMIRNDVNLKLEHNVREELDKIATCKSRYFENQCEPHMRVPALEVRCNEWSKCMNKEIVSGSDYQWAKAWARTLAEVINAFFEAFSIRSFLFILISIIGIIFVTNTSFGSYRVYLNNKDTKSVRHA


Target: T1, Brr6-yeGFP (budding yeast)
Assay: co-IP; Brr6-yeGFP precipitated from yeast lysate (0.5% Triton X-100) with GFP-Trap agarose beads, 2 h at 4°C; blots with anti-HA (Apq12-6HA) and anti-Brl1; APQ12 and apq12-ah backgrounds

| binding | Binder |
| --- | --- |
| binds | Brl1 (protein, UniProt P38770 1-471) MESFENLSIRDSFTSGMEHVDEELGGLSDLSISKQGPTLSPQLINRFMPHFPSSPSPLRNTLDFSAAKADEEEDDRMEIDEVDDTSFEEEYNNEPIETHTEATENAVVEEIEATPEERQKQEKNESQDQSVEEVENIVSPHRSTVIKALLSPTDLGVAAATKVEGVVPLPPSANQDDNESSNNNAEGEDIIRNEEVEDEIKSSLGNHKSSQYANAFDSEIIKRELRSRSKYQPIQVSFNTHNYFYSDKDGIKTYSLTKPNHNKIDEFYDQNEAFKLPKPWSPNSHPASRASYALMSYLQLFLNAITTVVIFSFILSFIIALQKDLKSTWEQRKHELQYESRICQEQYLTNRCNQTPGLPALGEQCAIWKQCMDRNNDIFFRARSTLSAKLFGDIINSFIDPLNWKTLFVIFCGVITWCFSSNFLLGFVRAKSYYGNGIKTYPLPSSPKSPTSEETHSSMTASGEDSHLLKQ |
| binds | Apq12-6HA (protein, UniProt P40532 1-138) MDATQPQYELSVVTQCLKSAIDVIQWLIPTITKFSQSHPLVFQLLFIFFTFYVFYKLLMNFITLVKRFLYLTLVVTCIGIYMRGSQQFLTVDLLNFYNFVMSNRYYAFKIYTLFINALEREINTVYHLAQMKMEQLLK |
